Laboratory results reported in PubChem BioAssay AID1259415 (National Center for Advancing Translational Sciences (NCATS), 2018).
Out of some 410,000 compounds screened, about 18,000 (4.4%) were called active. Inconclusive means that the source gave no clear call. Such entries were picked first, then a sample of the others. Cut-off read from the data, not from the text of the source: active = activity change below about -60%; inconclusive = no clear call, values can overlap the other calls; inactive = above about -39%.

Test: qHTS Assay for inhibitors of the human cytomegalovirus (HCMV)
Conditions: HFF cells, HCMV-luciferase reporter, 72 h; at 57.5 µM; stronger effect = lower value
Method in brief: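 After 16 h attachment at 37C, HFF cells received test compound and HCMV-luciferase (1 PFU/cell); reporter luminescence read 72 h later, data normalized against buffer-only and known inhibitor Salinomycin.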
% is set by controls: 0 for no effect and ±100 for the full control effect.

SMILES	activity change, negative = inhibition
N#Cc1cc(NC(=O)c2ccc(Cl)cc2)ccc1Sc1ccccc1	active: -82.9%
CCOC(=O)c1ccc(NC(=O)Cn2ncc(Cl)c(Cl)c2=O)cc1	active: -99.7%
Cc1nnc2c(N3CCN(c4ccccc4F)CC3)nc3ccc(C(=O)c4ccccc4)cc3n12	inconclusive: 0%
CCCOc1ccc(C(=O)Nc2ccc(NC(=O)c3ccccc3)c(C)c2)cc1	inactive: -24.4%
CCc1cc(=O)[nH]c(SCc2nc(-c3ccccc3)no2)n1	inactive: 23.7%
Cc1cccc(CC(=O)NCc2nc3cccnc3n2Cc2ccc(F)cc2)c1	active: -63.3%
O=C(O)[C@H]1[C@H](CO)[C@H]2Cn3c(cccc3=O)[C@@H]1N2S(=O)(=O)c1ccccc1F	inactive: 31.8%
CCOc1cccc(C(=O)Nc2cc(C)ccc2NC(=O)c2ccco2)c1	inactive: -7.56%
Cc1ccc(-n2cc(C(=O)c3cc(Cl)ccc3O)cc(C#N)c2=O)cc1	inconclusive: -48.2%
CSc1cccc(NC(=O)c2ccco2)c1	inactive: -6.72%
CCc1nc(C)cn1S(=O)(=O)c1ccc(Cl)c(Cl)c1OC	active: -74.9%
COc1ccc(NC(=O)c2cc(C3CCCCN3S(=O)(=O)c3ccc(F)cc3F)on2)c(C)c1 (stereo not drawn)	inconclusive: -41.6%
O=C(O)c1cc(-c2ccc(-c3c(-c4ccc5c(c4)OCO5)noc3-c3ccsc3)cc2)nc2ccccc12	inconclusive: -55.8%
CCNC(=O)c1c(NC(=O)c2nc(S(=O)(=O)CC)ncc2Cl)sc2c1CCCC2	active: -101%
COc1ccccc1N(C(=O)c1snc(C(N)=O)c1N)C(C(=O)NC1CCCC1)c1ccco1 (stereo not drawn)	inconclusive: -47.6%
O=C(CSc1ncnc2c1cnn2-c1ccccc1)NCC1CCCO1 (stereo not drawn)	inactive: -39.4%
COc1ccc(CC(=O)NCCS(=O)(=O)N2CCN(c3ccc(F)cc3)CC2)cc1OC	inconclusive: -58.3%
O=C(NCCc1c[nH]c2ccccc12)C(=O)NCC1OCCCN1S(=O)(=O)c1cccs1 (stereo not drawn)	inactive: -18.7%
COc1cccc2c1C1(O)C2CCCCCCCCCC12OCCCO2 (stereo not drawn)	inconclusive: -50.5%
CCOC(=O)N1CCC2(CC1)OC(=O)C(C)=C2C(=O)NCc1ccccc1OC	inconclusive: 0%
COCCCNc1nc(SCc2ccccc2)nc2sc3c(c12)CCC3	inconclusive: -45.7%
CN(C)S(=O)(=O)c1cccc(NC(=O)c2ccc(N3CCOCC3)c([N+](=O)[O-])c2)c1	active: -70.9%

Some values from the entries so far:
activity change, negative = inhibition, O=C(O)[C@H]1[C@H](CO)[C@H]2Cn3c(cccc3=O)[C@@H]1N2S(=O)(=O)c1ccccc1F reads inactive: 31.8%
activity change, negative = inhibition, COCCCNc1nc(SCc2ccccc2)nc2sc3c(c12)CCC3 reads inconclusive: -45.7%

Additional structures follow.

SMILES	activity change, negative = inhibition
CN(C)S(=O)(=O)c1cccc(NC(=O)COC(=O)/C=C/c2ccc3c(c2)OCO3)c1	inactive: 44.6%
Clc1ccc(-n2cccc2)cn1	inconclusive: -51.8%
CCOc1ccc(NC(=S)N2CCC(c3nc4ccccc4[nH]3)CC2)cc1	inconclusive: -53.2%
COc1cc(NC(=O)c2cccc(C)c2)ccc1NC(=O)c1cc2ccccc2o1	active: -86.7%
Fc1ccc(-c2ccc3c(c2)C2CC3CCN2)cc1 (stereo not drawn)	inactive: -12.3%
CCOc1ccc(C(C)NC(=O)Cc2ccccc2F)cc1OCC (stereo not drawn)	inactive: 21.4%
COc1ccc(NC(=O)Cc2ccccc2F)cc1S(=O)(=O)N1CCCCC1	inactive: -17.8%
C/C(=N\Nc1nc(C)cc(-c2ccccc2)n1)c1ccc(O)cc1	active: -89.2%
Cc1ccc(C2=NNC3(CCOC(C)(C)C3)S2)cc1 (stereo not drawn)	inconclusive: -54.7%
COc1ccccc1-c1noc(CSc2nc(C)cc(=O)[nH]2)n1	active: -61.9%
COc1cc(-c2nc3ccccn3c2/N=C/c2ccc(F)cc2)ccc1O	inactive: -6.73%
COc1ccc(CNC(=O)c2sc3nc4n(c(=O)c3c2C)CCC4)cc1	inactive: 16%
CCOC(=O)C1=C(C)NC(C)=C(C(=O)OCC)C1c1ccc(OC)c(OC)c1	inactive: 84.9%
CCOC(=O)c1c(NC(=O)CN2C(=O)NC3(CCCCCC3)C2=O)sc(C)c1-c1ccc(C)cc1	inconclusive: -50%
Cc1ccccc1C(=O)N1CCC2CC1c1cc(-c3ccc(F)cc3)ccc12 (stereo not drawn)	inactive: 12.4%
COC(=O)c1cc(=O)n(CCc2ccccc2F)c(=Nc2ccc(F)c(Cl)c2)s1	inconclusive: -45.9%
CC(=O)N1CCN(Cc2nc3cc(NC(=O)c4ccccc4C)ccc3n2C)CC1	inactive: 26.5%
COC(=O)[C@@H](CC(C)C)N(Cc1ccccc1)S(=O)(=O)N(Cc1ccccc1)[C@@H](CC(C)C)C(=O)OC	inconclusive: -47.7%
Cc1ccc(N2C(=O)c3ccccc3C2C(=O)c2cc(C)ccc2O)cc1 (stereo not drawn)	inconclusive: -54.1%
O=C(COC(=O)c1ccccc1F)Nc1ccc(S(=O)(=O)N2CCOCC2)cc1	inconclusive: -48.1%
Cc1cc(C)n(Cc2ccc(Cl)c(Cl)c2)c(=O)c1S(=O)(=O)c1ccccc1	inconclusive: -40.1%
